Some of the results follow.

Chains of the proteins cited; added tags and fusions are not shown.
UniProt Q0JBA9, entry or part of it: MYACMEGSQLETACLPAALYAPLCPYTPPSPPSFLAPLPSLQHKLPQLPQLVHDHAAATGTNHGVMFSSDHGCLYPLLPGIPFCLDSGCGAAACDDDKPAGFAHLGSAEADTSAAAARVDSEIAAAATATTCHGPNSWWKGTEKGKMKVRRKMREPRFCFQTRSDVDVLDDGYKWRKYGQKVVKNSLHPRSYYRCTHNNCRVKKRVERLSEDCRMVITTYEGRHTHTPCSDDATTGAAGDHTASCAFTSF

This experiment deals with OsWRKY34 (Oryza sativa, UniProt Q0JBA9 1-250). Put plainly: protein-binding microarray (RPBM); PBS, 2% BSA, 51.3 ng/ul salmon testes DNA, 50 uM zinc acetate, 200 nM TF, 25 C, 1 h; high values mean tight binding. The settings on record: protein: recombinant; tags: N-terminal polyhistidine and DsRed monomer fusion (pET32a); label: CyDye5-dUTP incorporated in the synthesized complementary strand; 3' TTTTT single-stranded linker to array surface; dsDNA, one strand shown. The gist of the method:
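Transcription factors, each fused N-terminally to a polyhistidine tag and DsRed, were expressed in E. coli BL21-CodonPlus and purified on Ni–NTA. A custom Agilent array was made double-stranded by primer extension with Cy5-dUTP and blocked with 2% BSA. It was incubated with 200 nM protein in PBS, 2% BSA, salmon testes DNA and 50 µM zinc acetate at 25 °C for 1 h, then washed. The binding signal is per-feature fluorescence intensity (arbitrary units) read on an Axon 4000B scanner.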
On to “AGAATCTTCTTCGTTCGTTCCTCGAACCTCAGATGCATGCCGGAGTCACCTAGTGCAG”, for which the binding signal is 8880 fluorescence intensity (a.u.).

Consider “ACTCCTGTTTGTGCAGGTTCTCCATGCATTTCTACTGTAACGGAGTCACCTAGTGCAG”, for which the binding signal is 10000 fluorescence intensity (a.u.).

Regarding “TTCGCCGTCTCTTTTCCTTTCGCCGCTGCAAACCTCCGTCCGGAGTCACCTAGTGCAG”, the binding signal is 10000 fluorescence intensity (a.u.).

For “TTGGGTTTTTTTATCGTAAATTATTTTTCAGATTGTGCTTCGGAGTCACCTAGTGCAG”, the binding signal is 8420 fluorescence intensity (a.u.).

Take “TTATTCATACATGTCACTGCCAGGCTGCTGTCTACTTCTTCGGAGTCACCTAGTGCAG”: the binding signal was 9530 fluorescence intensity (a.u.).

As for “GTTTGTCAGTGACTTCTGCATGTGGCTGTGTTGTGCGACTCGGAGTCACCTAGTGCAG”, the binding signal was 9380 fluorescence intensity (a.u.).

Consider “TTATCAAATTCCGATCAAATCATTCCTCGTCGGCGTCCATCGGAGTCACCTAGTGCAG”, for which the binding signal is 8880 fluorescence intensity (a.u.).

“GTTGGTTCAATGTGTATTCTTTCATTCTTGCACATATGCACGGAGTCACCTAGTGCAG”: the binding signal was 8390 fluorescence intensity (a.u.).

For the sequence “TCATTTGATTTATTGTTAAATATATTTTTATGTATACATACGGAGTCACCTAGTGCAG”, the binding signal was 8550 fluorescence intensity (a.u.).

“GTAGGTTGGGGATGGGATGAGATGTGCAATCCCGGGAGAACGGAGTCACCTAGTGCAG”: the binding signal is 9000 fluorescence intensity (a.u.).

As for “CCACATATTACGGGACTATTTTCATCTGCTTTTTATTTATCGGAGTCACCTAGTGCAG”, the binding signal is 10800 fluorescence intensity (a.u.).

On to “ATCCAATCCCATCCATCCATCGCCTTCGCCTTCGTCGGGCCGGAGTCACCTAGTGCAG”, for which the binding signal was 10900 fluorescence intensity (a.u.).

For “CCCTCTCGTCGACCATGAAAATTTTCCTTGTTGCCTGGTGCGGAGTCACCTAGTGCAG”, the binding signal is 8780 fluorescence intensity (a.u.).

As to “CTAAATCCTCGGGTCCACATGTCATACTCAGCCTCTTTACCGGAGTCACCTAGTGCAG”, the binding signal was 11400 fluorescence intensity (a.u.).

For “TGTTATGCAAATGTGCAAATGCAAAAGTTGGCCGCAAGAACGGAGTCACCTAGTGCAG”, the binding signal is 17600 fluorescence intensity (a.u.).

As to “AAGTTCAGATGATGTTGCGAGGGTCCATTTTCAGCTTATACGGAGTCACCTAGTGCAG”, the binding signal is 8510 fluorescence intensity (a.u.).

In the case of “GGGGCGTTGGAGGTTTTGCTGCATGGCAGGCGCGTAATTTCGGAGTCACCTAGTGCAG”, the binding signal was 9720 fluorescence intensity (a.u.).

On to “GCCCACATGTCAGCCACACGCCACCTCGCACGTGCGTCACCGGAGTCACCTAGTGCAG”, for which the binding signal was 8830 fluorescence intensity (a.u.).

With “CCTCCATCATGAGCTCCAATTAGCCGCACACCGATCCCCTCGGAGTCACCTAGTGCAG”, the binding signal is 8300 fluorescence intensity (a.u.).

With “ACAGACCCGGAGGATTTTGATTAGTTCGTTTCCGCAGCCTCGGAGTCACCTAGTGCAG”, the binding signal was 9430 fluorescence intensity (a.u.).

With “CCTCTATTACCGCCTGTCATCTGGGCCCACGCTAATACCGCGGAGTCACCTAGTGCAG”, the binding signal was 13800 fluorescence intensity (a.u.).

Regarding “CTTGGACATCACCTGCGTGTTTCGAATCAGCTCCGTCATGCGGAGTCACCTAGTGCAG”, the binding signal was 8570 fluorescence intensity (a.u.).

On to “CCTACTAGTTTCTTTCTTGTGTTCTTTGGAATTTTTTTGACGGAGTCACCTAGTGCAG”, for which the binding signal is 8200 fluorescence intensity (a.u.).

As to “GCCACTCCTGACGTCAGCGTTGACTCGGTCAAACCCATCGCGGAGTCACCTAGTGCAG”, the binding signal is 19300 fluorescence intensity (a.u.).

For the sequence “ATGTTCAGTAGTTAAAGAGGATACTGGCCACATGCTTGACCGGAGTCACCTAGTGCAG”, the binding signal is 8790 fluorescence intensity (a.u.).

On to “ACCGCTGTATACCCTCGAGCCCCGACAATGGAGATTTTTTCGGAGTCACCTAGTGCAG”, for which the binding signal is 9380 fluorescence intensity (a.u.).

Turning to “GTACACCGTCTTGTCGATCACGACCAAACCCCGGCCGCCTCGGAGTCACCTAGTGCAG”, the binding signal is 8090 fluorescence intensity (a.u.).

Take “CATCCTCTTTATTTGGATCTTGTGTTTGATGTGATGATGTCGGAGTCACCTAGTGCAG”: the binding signal was 8540 fluorescence intensity (a.u.).

For the sequence “GTATTCTGATCATGCGGCTATCCTAGTACTCTCGAGCACCCGGAGTCACCTAGTGCAG”, the binding signal was 8130 fluorescence intensity (a.u.).

In the case of “CACTGATCACTTCATCCCATTAGCCATTAGCTGTTTCTCACGGAGTCACCTAGTGCAG”, the binding signal is 8430 fluorescence intensity (a.u.).

On to “GTCGTCAACAGGGAGGGAGGGGAGAAGAACCGGTGATGGACGGAGTCACCTAGTGCAG”, for which the binding signal was 8540 fluorescence intensity (a.u.).

As to “GTCTCTTCTCTTCTTCACTCCACTCCACTCCACTCCACTCCGGAGTCACCTAGTGCAG”, the binding signal is 8360 fluorescence intensity (a.u.).

For “CTTTTGTGCCCTTGCTATACTTTCTAAAGCCTTGTACGTTCGGAGTCACCTAGTGCAG”, the binding signal was 12000 fluorescence intensity (a.u.).

For “ATCACATCCACCCAAACTATCGCCCTCTGTCTCTCTCCCACGGAGTCACCTAGTGCAG”, the binding signal was 9090 fluorescence intensity (a.u.).

On to “GAGTTTTTACTTGTAACGTTTAACCACTCGTCTTATTCAACGGAGTCACCTAGTGCAG”, for which the binding signal is 8380 fluorescence intensity (a.u.).

“TTGTATGAACTGTTTATCTTTTGCTCTGTTTATGTGGACCCGGAGTCACCTAGTGCAG”: the binding signal is 9170 fluorescence intensity (a.u.).

Turning to “TTGGATTTGGGATTCTTCTCTTTCGTTTTCGTGTGTTTTTCGGAGTCACCTAGTGCAG”, the binding signal is 8770 fluorescence intensity (a.u.).

In the case of “TGTAGTAATTGGGTATCTTCATCATTTGTCCTAAAAAAGTCGGAGTCACCTAGTGCAG”, the binding signal was 8080 fluorescence intensity (a.u.).

Turning to “ATTTCAGCTCGAGCTGCCGCCACAGTTGTTGTTTGCGATGCGGAGTCACCTAGTGCAG”, the binding signal is 9830 fluorescence intensity (a.u.).

On to “TTTTTTCTGTTTGTCCTCCATATATGTCAGCTCTAAAAATCGGAGTCACCTAGTGCAG”, for which the binding signal was 9300 fluorescence intensity (a.u.).

On to “ATTACTCCATCCGTCCCCTGATATAAGAGGTTTTAATATTCGGAGTCACCTAGTGCAG”, for which the binding signal was 10700 fluorescence intensity (a.u.).

On to “GGATTAATTAGGCAAAAAACCGTTGACTCAGTCATCACACCGGAGTCACCTAGTGCAG”, for which the binding signal is 9280 fluorescence intensity (a.u.).

Source of the values: article PMC7819943, “Rice protein-binding microarrays: a tool to detect cis-acting elements near promoter regions in rice”.
